Measured values: paper PMC12229345
No constants are given. Whether binding was seen depends on the method and setting. In cells and extracts the contact can be indirect. Some binding calls cover weakened binding; strength is not graded here.

The chains behind the UniProt entries cited, without tags or fusion partners. Where a name states a change or a piece, a line headed by the entry shows the natural chain unless it says otherwise. A line that says so, or that is headed by a name, gives the form on record, which may keep a tag or linker. Residues count along the entry.
UniProt O75973, residues 17-258: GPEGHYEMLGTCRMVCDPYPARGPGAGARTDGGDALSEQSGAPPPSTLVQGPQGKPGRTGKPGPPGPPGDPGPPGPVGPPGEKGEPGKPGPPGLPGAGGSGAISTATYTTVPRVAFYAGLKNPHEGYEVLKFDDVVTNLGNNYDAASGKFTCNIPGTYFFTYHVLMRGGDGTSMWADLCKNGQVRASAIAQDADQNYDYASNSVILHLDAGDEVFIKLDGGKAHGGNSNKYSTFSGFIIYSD
His-tagged VCP ΔC-tail (deletion of amino acids 763-806) (P55072, residues 1-762): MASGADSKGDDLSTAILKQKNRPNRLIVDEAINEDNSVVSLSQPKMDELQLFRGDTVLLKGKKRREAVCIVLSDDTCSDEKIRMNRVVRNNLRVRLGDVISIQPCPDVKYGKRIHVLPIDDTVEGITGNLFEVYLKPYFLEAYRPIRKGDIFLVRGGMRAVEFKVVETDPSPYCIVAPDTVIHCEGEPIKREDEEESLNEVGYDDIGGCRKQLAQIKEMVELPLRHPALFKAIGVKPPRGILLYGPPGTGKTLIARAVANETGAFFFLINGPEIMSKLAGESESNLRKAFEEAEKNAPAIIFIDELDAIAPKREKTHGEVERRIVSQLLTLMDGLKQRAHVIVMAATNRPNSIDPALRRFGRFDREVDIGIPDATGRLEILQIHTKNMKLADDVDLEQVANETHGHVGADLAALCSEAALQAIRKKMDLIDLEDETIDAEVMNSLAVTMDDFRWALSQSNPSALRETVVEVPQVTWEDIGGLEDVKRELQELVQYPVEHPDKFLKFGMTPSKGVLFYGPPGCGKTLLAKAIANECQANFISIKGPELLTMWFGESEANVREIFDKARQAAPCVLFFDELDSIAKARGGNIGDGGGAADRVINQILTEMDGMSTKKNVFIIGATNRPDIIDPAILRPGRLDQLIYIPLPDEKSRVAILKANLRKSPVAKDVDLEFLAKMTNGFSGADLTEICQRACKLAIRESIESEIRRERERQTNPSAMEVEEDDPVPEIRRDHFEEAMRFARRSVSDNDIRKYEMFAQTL
His-tagged VCP ΔN (deletion of amino acids 1-184) (P55072, residues 185-806): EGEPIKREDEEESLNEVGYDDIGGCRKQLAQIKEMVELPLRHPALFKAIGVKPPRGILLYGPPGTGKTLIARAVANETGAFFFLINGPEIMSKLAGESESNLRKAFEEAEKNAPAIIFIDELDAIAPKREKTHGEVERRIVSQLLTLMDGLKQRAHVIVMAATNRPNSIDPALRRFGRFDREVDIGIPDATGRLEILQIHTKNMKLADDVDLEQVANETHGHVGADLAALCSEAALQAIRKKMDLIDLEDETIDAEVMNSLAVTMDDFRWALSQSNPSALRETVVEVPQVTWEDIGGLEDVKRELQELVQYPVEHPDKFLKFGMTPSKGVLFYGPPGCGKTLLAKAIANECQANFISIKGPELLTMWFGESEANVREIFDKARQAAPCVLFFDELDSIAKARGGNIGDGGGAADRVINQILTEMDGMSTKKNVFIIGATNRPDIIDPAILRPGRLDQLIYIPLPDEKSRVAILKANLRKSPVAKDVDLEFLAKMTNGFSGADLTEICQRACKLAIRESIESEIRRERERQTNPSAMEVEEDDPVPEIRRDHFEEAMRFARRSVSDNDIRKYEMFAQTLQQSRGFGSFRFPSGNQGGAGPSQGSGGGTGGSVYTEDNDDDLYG
His-tagged VCP ΔD2 (deletion of amino acids 482-762) (P55072, form named): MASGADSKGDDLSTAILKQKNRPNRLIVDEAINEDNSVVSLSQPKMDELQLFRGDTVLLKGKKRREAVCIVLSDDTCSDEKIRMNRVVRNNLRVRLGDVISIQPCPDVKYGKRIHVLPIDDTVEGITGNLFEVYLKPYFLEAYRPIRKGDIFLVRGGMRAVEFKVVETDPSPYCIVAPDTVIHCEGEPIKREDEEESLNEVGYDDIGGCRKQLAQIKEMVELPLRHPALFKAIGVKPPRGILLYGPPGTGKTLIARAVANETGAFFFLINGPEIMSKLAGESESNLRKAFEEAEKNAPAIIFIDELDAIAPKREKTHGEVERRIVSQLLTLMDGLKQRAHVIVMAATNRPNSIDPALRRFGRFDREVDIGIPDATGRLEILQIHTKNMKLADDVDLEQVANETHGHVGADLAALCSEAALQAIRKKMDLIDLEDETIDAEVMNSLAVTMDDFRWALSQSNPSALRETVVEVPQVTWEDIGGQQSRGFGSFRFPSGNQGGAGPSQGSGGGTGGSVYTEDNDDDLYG
His-tagged VCP ΔD1 (deletion of amino acids 210-463) (P55072, form named): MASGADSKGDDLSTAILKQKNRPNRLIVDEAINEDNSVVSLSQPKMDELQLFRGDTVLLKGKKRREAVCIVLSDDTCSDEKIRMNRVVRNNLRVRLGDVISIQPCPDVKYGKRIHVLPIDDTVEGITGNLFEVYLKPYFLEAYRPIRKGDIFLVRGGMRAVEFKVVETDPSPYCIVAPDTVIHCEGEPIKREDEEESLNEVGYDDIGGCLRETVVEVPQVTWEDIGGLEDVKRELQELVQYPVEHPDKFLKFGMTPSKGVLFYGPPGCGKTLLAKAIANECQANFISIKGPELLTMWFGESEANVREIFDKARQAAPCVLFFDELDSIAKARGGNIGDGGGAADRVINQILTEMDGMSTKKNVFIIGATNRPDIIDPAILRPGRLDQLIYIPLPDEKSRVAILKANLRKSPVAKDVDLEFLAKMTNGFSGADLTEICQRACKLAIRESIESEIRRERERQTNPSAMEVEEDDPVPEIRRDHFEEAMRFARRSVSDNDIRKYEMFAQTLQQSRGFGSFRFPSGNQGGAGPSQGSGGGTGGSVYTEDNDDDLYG

biological target: C1QL1-FLAG (complement component 1, q subcomponent-like 1), stably expressed in MDA-MB-231 and MDA-MB-468 cells (UniProt O75973); assay: co-IP; lysates (immunoprecipitation-specific RIPA buffer) of MDA-MB-231 and MDA-MB-468 cells stably expressing C1QL1-Flag; precipitated with Flag antibodies or HSP90α and VCP antibodies overnight at 4 °C, protein A and G agarose; western blot

Row | binding | Substance
1 | binds | valosin-containing protein (VCP), endogenous in MDA-MB-231 and MDA-MB-468 cells (from UniProt P55072 1-806)
2 | binds | heat shock protein 90α (HSP90α), endogenous in MDA-MB-231 and MDA-MB-468 cells (from UniProt P07900 1-732)

biological target: valosin-containing protein (VCP), endogenous in MDA-MB-231 and MDA-MB-468 cells (human (endogenous in MDA-MB-231 and MDA-MB-468)) (UniProt P55072); assay: as above

Row | binding | Substance
3 | binds | C1QL1-FLAG (complement component 1, q subcomponent-like 1), stably expressed in MDA-MB-231 and MDA-MB-468 cells (from UniProt O75973 17-258)

biological target: heat shock protein 90α (HSP90α), endogenous in MDA-MB-231 and MDA-MB-468 cells (human (endogenous in MDA-MB-231 and MDA-MB-468)) (UniProt P07900); assay: as above

Row | binding | Substance
4 | binds | C1QL1-FLAG (complement component 1, q subcomponent-like 1), stably expressed in MDA-MB-231 and MDA-MB-468 cells (from UniProt O75973 17-258)

biological target: C1QL1-FLAG, transfected into HEK293T cells (UniProt O75973); assay: co-IP; HEK293T cells transfected with the C1QL1 plasmid and HA-tagged HSP90α or His-tagged VCP (full length or deletion mutants); lysate in RIPA buffer, protein A and G agarose; western blot

Row | binding | Substance
5 | binds | HA-tagged HSP90α full length (WT) (from UniProt P07900 1-732)
6 | binds | His-tagged VCP full length (WT) (from UniProt P55072 1-806)
7 | binds | His-tagged VCP ΔD2 (deletion of amino acids 482-762) (from UniProt P55072 1-806) (domain or fragment)
8 | binds | His-tagged VCP ΔD1 (deletion of amino acids 210-463) (from UniProt P55072 1-806) (domain or fragment)
9 | binds | HA-tagged HSP90α ΔN (deletion of amino acids 1-264) (from UniProt P07900 265-732) (domain or fragment)
10 | binds | HA-tagged HSP90α ΔM (deletion of amino acids 265-620) (from UniProt P07900 1-732) (domain or fragment)
11 | binds | His-tagged VCP ΔC-tail (deletion of amino acids 763-806) (from UniProt P55072 1-762) (domain or fragment)
12 | binds | His-tagged VCP ΔN (deletion of amino acids 1-184) (from UniProt P55072 185-806) (domain or fragment)
13 | binds | HA-tagged HSP90α ΔC (deletion of amino acids 621-732) (from UniProt P07900 1-620) (domain or fragment)
